Paper PMC3244426
These are yes or no findings as the source states them, for the method shown. In cells and extracts the contact can be indirect. Some binding calls cover weakened binding; strength is not graded here.

Sequences of proteins named here, by UniProt entry; tags and fusion partners are left off. Residues count along the entry.
UniProt Q08857: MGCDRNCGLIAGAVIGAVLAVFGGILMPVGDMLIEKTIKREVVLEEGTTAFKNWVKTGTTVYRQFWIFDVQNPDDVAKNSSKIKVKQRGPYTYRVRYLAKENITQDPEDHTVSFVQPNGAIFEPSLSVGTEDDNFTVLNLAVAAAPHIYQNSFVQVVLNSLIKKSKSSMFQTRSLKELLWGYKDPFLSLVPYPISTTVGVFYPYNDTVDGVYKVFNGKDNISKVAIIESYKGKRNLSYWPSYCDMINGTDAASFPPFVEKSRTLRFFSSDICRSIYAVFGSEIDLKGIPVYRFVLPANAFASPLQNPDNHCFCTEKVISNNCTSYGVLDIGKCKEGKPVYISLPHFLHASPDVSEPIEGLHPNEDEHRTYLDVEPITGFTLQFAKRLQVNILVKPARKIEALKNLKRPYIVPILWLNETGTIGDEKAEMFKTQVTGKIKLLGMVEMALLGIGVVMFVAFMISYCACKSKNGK
UniProt P27512, residues 20-289: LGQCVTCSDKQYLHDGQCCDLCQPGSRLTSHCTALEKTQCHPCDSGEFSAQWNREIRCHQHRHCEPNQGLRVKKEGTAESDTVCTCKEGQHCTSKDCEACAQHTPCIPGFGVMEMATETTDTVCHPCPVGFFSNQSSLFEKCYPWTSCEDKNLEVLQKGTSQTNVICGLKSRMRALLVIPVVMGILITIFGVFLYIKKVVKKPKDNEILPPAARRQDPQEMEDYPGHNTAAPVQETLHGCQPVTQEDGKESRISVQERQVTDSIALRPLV

How the values were obtained:
[1] = target: T1, CD9 tetraspanin (mouse (endogenous in peritoneal macrophages)) (UniProt P40240); test: co-IP; mouse peritoneal macrophages treated with dithiobis-succinimidylpropionate, lysed in 1% CHAPS, 50 mM Tris-HCl pH 7.5, 150 mM NaCl; 750 µg protein with anti-CD36 IgA or anti-CD9 IgG beads overnight at 4°C; immunoblot; cd36 null cells and isotype control antibodies as controls
T1 sequence: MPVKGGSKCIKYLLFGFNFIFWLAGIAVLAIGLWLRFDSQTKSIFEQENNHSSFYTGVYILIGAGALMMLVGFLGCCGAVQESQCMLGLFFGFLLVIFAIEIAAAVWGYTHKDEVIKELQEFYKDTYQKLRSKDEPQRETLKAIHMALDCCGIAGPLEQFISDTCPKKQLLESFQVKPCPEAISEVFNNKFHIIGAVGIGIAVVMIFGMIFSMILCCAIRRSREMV

[2] = target: CD36 (mouse (endogenous in peritoneal macrophages)) (UniProt Q08857); test: proximity ligation; fixed mouse peritoneal macrophages; anti-CD36 with anti-CD9, anti-CD31 or anti-CD40 primary antibodies, species specific DNA-conjugated secondary antibodies (Duolink, Olink); spots when <40 nm apart; cd36 null cells as control

| binding [1] | binding [2] | Substance |
| --- | --- | --- |
| binds | – | CD36 (from UniProt Q08857 1-472) (receptor) |
| – | no binding | CD40 (from UniProt P27512 20-289) (receptor) |
